Measured values reported in paper PMC10698143.
Results are given in words; binding and its absence hold for the method and conditions named. Binding seen in cells or lysates may run through a third protein. These calls come from enrichment with a bait or labelling near it, and not all partners need be listed. Values belong to the binder of their own block, whether it stands above or below them.

Tests used:
[1] = target: T1, Macrophage migration inhibitory factor (MIF) (human (endogenous in RCTE)) (UniProt P14174); assay: peptide or protein array + affinity purification with mass spectrometry; hits named jointly for the HuProt protein chip screen and the MIF IP-MS screen; which screen found which kinase is not told
T1 sequence: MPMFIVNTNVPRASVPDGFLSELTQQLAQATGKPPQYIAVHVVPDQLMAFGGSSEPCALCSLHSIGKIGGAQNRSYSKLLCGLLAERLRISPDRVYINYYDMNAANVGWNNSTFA

[2] = target: T1, Macrophage migration inhibitory factor (MIF) (human (endogenous in RCTE)); assay: affinity purification with mass spectrometry; RCTE cell lysates immunoprecipitated with MIF antibody, SDS-PAGE, in-gel tryptic digestion, LC-MS/MS

binding [1]: binds
B1: PRKD2 (enzyme, UniProt Q9BZL6 1-878)
chain: MATAPSYPAGLPGSPGPGSPPPPGGLELQSPPPLLPQIPAPGSGVSFHIQIGLTREFVLLPAASELAHVKQLACSIVDQKFPECGFYGLYDKILLFKHDPTSANLLQLVRSSGDIQEGDLVEVVLSASATFEDFQIRPHALTVHSYRAPAFCDHCGEMLFGLVRQGLKCDGCGLNYHKRCAFSIPNNCSGARKRRLSSTSLASGHSVRLGTSESLPCTAEELSRSTTELLPRRPPSSSSSSSASSYTGRPIELDKMLLSKVKVPHTFLIHSYTRPTVCQACKKLLKGLFRQGLQCKDCKFNCHKRCATRVPNDCLGEALINGDVPMEEATDFSEADKSALMDESEDSGVIPGSHSENALHASEEEEGEGGKAQSSLGYIPLMRVVQSVRHTTRKSSTTLREGWVVHYSNKDTLRKRHYWRLDCKCITLFQNNTTNRYYKEIPLSEILTVESAQNFSLVPPGTNPHCFEIVTANATYFVGEMPGGTPGGPSGQGAEAARGWETAIRQALMPVILQDAPSAPGHAPHRQASLSISVSNSQIQENVDIATVYQIFPDEVLGSGQFGVVYGGKHRKTGRDVAVKVIDKLRFPTKQESQLRNEVAILQSLRHPGIVNLECMFETPEKVFVVMEKLHGDMLEMILSSEKGRLPERLTKFLITQILVALRHLHFKNIVHCDLKPENVLLASADPFPQVKLCDFGFARIIGEKSFRRSVVGTPAYLAPEVLLNQGYNRSLDMWSVGVIMYVSLSGTFPFNEDEDINDQIQNAAFMYPASPWSHISAGAIDLINNLLQVKMRKRYSVDKSLSHPWLQEYQTWLDLRELEGKMGERYITHESDDARWEQFAAEHPLPGSGLPTDRDLGGACPPQDHDMQGLAERISVL

binding [2]: binds
B2: phosphatidylinositol-5-phosphate 4-kinase type 2 alpha (PIP4K2a) (enzyme, UniProt P48426 1-406)
chain: MATPGNLGSSVLASKTKTKKKHFVAQKVKLFRASDPLLSVLMWGVNHSINELSHVQIPVMLMPDDFKAYSKIKVDNHLFNKENMPSHFKFKEYCPMVFRNLRERFGIDDQDFQNSLTRSAPLPNDSQARSGARFHTSYDKRYIIKTITSEDVAEMHNILKKYHQYIVECHGITLLPQFLGMYRLNVDGVEIYVIVTRNVFSHRLSVYRKYDLKGSTVAREASDKEKAKELPTLKDNDFINEGQKIYIDDNNKKVFLEKLKKDVEFLAQLKLMDYSLLVGIHDVERAEQEEVECEENDGEEEGESDGTHPVGTPPDSPGNTLNSSPPLAPGEFDPNIDVYGIKCHENSPRKEVYFMAIIDILTHYDAKKKAAHAAKTVKHGAGAEISTVNPEQYSKRFLDFIGHILT
